Measurements from article PMC4457034.
These are yes or no findings as the source states them, for the method shown. Binding seen in cells or lysates may run through a third protein. Binding calls can cover weak binding; strength is not graded here.

By UniProt entry, the sequences of proteins in these tests, tags left out. Where a name states a change or a piece, a line headed by the entry shows the natural chain unless it says otherwise.
UniProt Q95RF6: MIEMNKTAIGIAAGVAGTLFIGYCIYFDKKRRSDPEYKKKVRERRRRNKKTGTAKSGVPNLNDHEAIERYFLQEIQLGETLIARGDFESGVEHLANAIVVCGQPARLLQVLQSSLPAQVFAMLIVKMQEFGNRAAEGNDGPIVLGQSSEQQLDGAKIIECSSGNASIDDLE

Key:
[1] = biological target: TOM20-myc from flies overexpressing UAS-TOM20-myc (Drosophila) (UniProt Q95RF6); assay: co-IP; fly extract from flies overexpressing UAS-TOM20-myc; TOM20 pulled down
[2] = biological target: myc-tagged TOM20 (Translocase of the outer membrane 20) (Drosophila) (UniProt Q95RF6); assay: co-IP; S2R+ cells transfected with myc-tagged proteins, normal culture conditions; reciprocal IPs (anti-Clu, anti-myc); IP buffer 20 mM HEPES pH 7.4, 50 mM KCl, 0.02% Triton X-100, 1% NP-40 (sub), 1 mM EDTA, 0.5 mM EGTA, 5% glycerol; extract spun at 12,000 g; 4°C overnight; Protein AG magnetic …
[3] = biological target: myc-tagged TOM20 (Translocase of the outer membrane 20) (Drosophila) (UniProt Q95RF6); assay: co-IP; S2R+ extract, 1% Triton X-100 added to the IP buffer, extract spun at 135,000 g for 30 min (high-speed centrifugation co-IP)
[4] = biological target: myc-tagged PINK1 lacking the mitochondrial targeting sequence (PINK1ΔMTS) (Drosophila); assay: as above

Measured: binding

B1: Clueless (Clu), endogenous (protein, UniProt A1ZAB5 1-1448)
chain: MALETEAKNSNATATGDATATATKASGKAKENNNTAGGKKNLNPNSNQQNSNQNLVNGNGTAADGPAAKKKGKKNRNKSPTEPTTEAVLSNGHAEKPTVVDAVEDNADTNANVEKPQEGGAPDAEADGDDIDLDALQDIGITVNISSPGADLLCVQLSSMELVQEIHQLLMDREETCHRTCFSLQLDNVTLDNFAELKSINNLEQGSTIKVVEEPYTMREARIHVRHVRDLLKNLDPADAYNGIDCTSLTYLNTITQGDLLDKKRTRPDSVDCTPPEYVTPGVSDPPILPLHPNVKNAKGPQALKVLTTSAWNPPPGPRKLHGDLMYLYVVTMEDKRFHISACSKGFFINQSTDDTFNPKPDNPSHLSHSLIDLLSHISPSFRRAFQTIQKRRTMRHAFERVATPYQVYQWAAPILEHTVDAIRAEDAFSSKLGYEEHIPGQTRDWNEELQTTRELPRKTLPERLLRERAIFKVHGDFVTAATRGAMAVIDGNVLAINPGEDTKMQMFIWNNIFFSMGFDVRDHYKELGGDAAAFVAPRYDLHGVRVYNAVDIEGLYTLGTVVVDYRGYRVTAQSIIPGILEREQEQSVVYGSIDFGKTVLSHPKYLELLRQAGKHLKILPHVVLNERDEPVELCSSVECKGIIGNDGRHYILDLLRTFPPDVNFLKLQDVQLSKELVDMGFPIEHRHKLCCLRQELLEAFIEDRHVNFIRIAAARLQQLTTIKQSEKSEANPVPALEGAEAASKVNGAEKPDDKEKKNEEEEKKERSTSGEARAAAIVNAIREAQSNVATSNEVQAAEVVKRACAAVGSLKEKEFDFRFNPDVFSPGIRHADGEEGTSLAKQKVLVQEAAEFLVLKQIPAFIKEHMSHSSSPIDGQSLTESLHSHGINVRYLGKVIKILSQMPRMDYLHRIAVLELIVRATKHIYYTYMQNTEPLHLSAAISHFLNCLLTNGPVNPAVSSEEAHKKRGNGGKHNKHKSSKGGKGQQQQQTTGNQNGSSSGSSNSSSASDWTLMTPRSLWQQIRKEAKVYWDWELDCDSIETAVSKYGILRISLMRAFCLKVGIQVLLREYNFESKHKPTFGDDDIVNVFPIVKHISPRATDAYNFYTTGQAKIQQGLFKEGYELISGALNLLNNVFGALHQENGSCLRMLARLSYLLGDAQDALAIQQRAVIMSERVNGMDHPSTILEYTHLSLYSFANGHVGMSLKLLYRARYLMVLICGEDHPEVALIDSNISLILHALGEYELSLRFIEHALKLNLKYFGDKDMHVALSYHLMARTQSCMGDFRSALNNEKETYSFYKSQLGENHEKTRDSAECLRLLTQQAVLLQRKMNDIYSSGKLTSDLPPIHITPPSMGSVLDMLNTINGILFVKISRKDIVKVRSEIEKHFKTDSTENEVNDAINSIVAAANNNGEAEDAVSKDIKEQPEAGKQLTNGDKAAATEATSS
binds: all assays above
